Reference: publication PMC1173138
Results are given in words; binding and its absence hold for the method and conditions named. In cells and extracts the contact can be indirect. Some entries that bind do so weakly or less than the wild type.

The chains behind the UniProt entries cited, without tags or fusion partners.
UniProt Q03135: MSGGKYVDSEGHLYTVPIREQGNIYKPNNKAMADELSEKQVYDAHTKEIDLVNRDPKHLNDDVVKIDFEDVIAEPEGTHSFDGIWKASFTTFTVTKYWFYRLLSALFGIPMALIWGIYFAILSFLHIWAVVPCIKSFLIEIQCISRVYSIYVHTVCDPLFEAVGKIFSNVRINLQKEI
UniProt P08134: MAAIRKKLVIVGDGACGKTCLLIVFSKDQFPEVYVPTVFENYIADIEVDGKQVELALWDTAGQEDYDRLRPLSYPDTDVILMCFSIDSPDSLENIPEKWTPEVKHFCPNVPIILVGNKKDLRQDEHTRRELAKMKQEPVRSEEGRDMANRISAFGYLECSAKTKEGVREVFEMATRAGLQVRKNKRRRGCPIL

Biological target: Caveolin-1 (human (endogenous in BxPC-3)) (UniProt Q03135)
Test: co-IP; RIPA lysate (1 mg in the methods, 500 ug in the legend) of BxPC-3, HPAF-II and HPAF-II/dnRhoC cells; pre-incubated with normal isotype control 1 h; overnight with polyclonal or monoclonal anti-cav-1 and Protein A/G agarose at 4 C; 4 washes with ice-cold PBS; immunoblot for RhoC; normal IgG as negative control

Substance: RhoC GTPase (from UniProt P08134 1-193)
- binding: binds
